Experimental data: PubChem BioAssay AID504764 (Drosophila RNAi Screening Center, 2011)
Screen: 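Knock-downs that raise or lower a Notch target reporter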 (primary screen). Cell system: Drosophila Kc167 cells. Reagent: long dsRNA against Drosophila genes. Time to read-out: about 5 days (4 days dsRNA, then 24 h after transfection). Conditions: transfection of constitutively active membrane-tethered Notch lacking the extracellular domain, read 24 h later. Detection: 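Firefly luciferase from an E(spl)m3 reporter with active Notch, plus control-promoter and uninduced reporter wells for normalisation; unnormalised counts, duplicate wells a and b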. Direction: induced reporter light, run 1, well a and induced reporter light, run 1, well b: higher = more light from the Notch target reporter with active Notch; control promoter light, run 1, well a and control promoter light, run 1, well b: higher = more light from the viral control promoter (cell number, transfection, viability); uninduced reporter light, run 1, well a: higher = more light from the Notch target reporter without active Notch. Call rule: 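Wells with low control signal or poorly matching duplicates excluded; duplicates averaged; per source plate, z beyond ±2 for induced/control log2 ratio or beyond ±1.8 for induced/uninduced marks a hit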. Calls: active = modifier hit (raised or lowered Notch signal); inactive = not a hit.
In all, the deposit lists about 22,000 reagents; below is an unselected part of those that have a named target and a result. Of all reagents, 403 (1.9%) are marked active. 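Unnormalised raw counts per well; ratio z-scores behind the hit calls and whether each hit raises or lowers signal are not deposited.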 Not given: the amount of reagent.

no.	target gene	amplicon	induced reporter light, run 1, well a	induced reporter light, run 1, well b	control promoter light, run 1, well a	control promoter light, run 1, well b	uninduced reporter light, run 1, well a	Outcome
1	JhI-26	DRSC06851	1.48e5	1.37e5	2.76e5	2.47e5	12245	inactive
2	CG15715	DRSC10216	1.82e5	1.64e5	1.79e5	1.97e5	10715	inactive
3	Drak	DRSC19778	66710	53055	1.25e5	1.32e5	4655	inactive
4	CG13842	DRSC14692	1.68e5	1.37e5	1.78e5	1.97e5	13425	inactive
5	CG9114	DRSC20155	80870	77470	94170	98870	12130	inactive
6	Ugt303A1	DRSC15641	85425	93475	98015	80335	3030	inactive
7	Cpr30F	DRSC02908	3.14e5	2.51e5	2.96e5	2.80e5	19030	inactive
8	CG8668	DRSC03101	81900	78120	75045	61480	6565	inactive
9	CG8888	DRSC07294	1.90e5	1.47e5	1.45e5	1.77e5	12260	inactive
10	CG8888	DRSC07295	63740	1.27e5	1.42e5	1.82e5	12310	inactive
11	CG31826	DRSC03357	1.38e5	1.67e5	1.66e5	1.64e5	12475	inactive
12	Myc	DRSC18762	13288	13975	11640	12710	2440	inactive
13	SPoCk	DRSC11675	1.20e5	82110	1.21e5	1.21e5	6732	inactive
14	SPoCk	DRSC11706	66410	70895	78415	90325	6210	inactive
15	SPoCk	DRSC11844	1.54e5	97155	1.35e5	1.03e5	9310	inactive
16	SPoCk	DRSC11845	1.25e5	1.32e5	1.48e5	1.20e5	8240	inactive
17	EndoU	DRSC15472	3.13e5	2.90e5	4.37e5	4.61e5	21125	inactive
18	CG1143	DRSC08188	67915	77095	1.21e5	1.02e5	5675	inactive
19	Srlp	DRSC15890	80555	76785	85915	76015	4392	inactive
20	Syx13	DRSC09836	1.21e5	1.12e5	94145	90470	7260	active
21	Rnf146	DRSC11045	1.03e5	1.24e5	1.23e5	1.25e5	8692	inactive
22	HBS1	DRSC08544	1.12e5	83515	1.59e5	1.62e5	9400	inactive
23	skl	DRSC10050	1.90e5	1.68e5	2.68e5	2.41e5	10650	inactive
24	fd96Ca	DRSC16946	1.58e5	1.21e5	1.80e5	1.73e5	10410	inactive
25	CG18547	DRSC15345	56750	54055	65720	40510	4650	inactive
26	Ndf	DRSC02775	2.11e5	1.86e5	1.84e5	1.76e5	12770	inactive
27	CG15262	DRSC01975	95285	1.20e5	1.34e5	1.43e5	8440	inactive
28	tho2	DRSC00646	35775	79835	73110	1.00e5	4655	inactive
29	Cpr65Ec	DRSC11025	2.40e5	2.29e5	2.42e5	2.66e5	10715	inactive
30	acj6	DRSC20304	2.10e5	1.93e5	2.49e5	2.44e5	14270	inactive
31	usp	DRSC18847	1.43e5	1.38e5	2.27e5	2.52e5	10235	inactive
32	NimC2	DRSC01881	1.27e5	1.50e5	1.51e5	2.08e5	12130	inactive
33	dah	DRSC20320	1.17e5	1.12e5	1.33e5	1.23e5	7705	inactive
34	Cubn2	DRSC10561	1.80e5	1.80e5	2.65e5	1.57e5	8950	inactive
35	nAChRalpha1	DRSC13664	31260	29775	25945	28360	6345	inactive
36	nAChRalpha1	DRSC13670	17400	18365	20410	22020	3910	inactive
37	nAChRalpha1	DRSC13672	2.11e5	2.36e5	2.01e5	2.03e5	20385	inactive
38	nAChRalpha1	DRSC17008	73340	71185	87340	95940	6605	inactive
39	CG8468	DRSC07190	98980	97995	1.23e5	1.34e5	7205	inactive
40	Usp7	DRSC18909	1.01e5	1.25e5	1.09e5	1.26e5	7465	inactive
41	Usp7	DRSC19604	1.20e5	1.17e5	2.17e5	2.15e5	8515	inactive
42	Had1	DRSC20216	1.01e5	65310	97475	97590	12870	inactive
43	CG10799	DRSC06002	1.00e5	96940	1.27e5	1.23e5	9675	inactive
44	ppk8	DRSC17269	75175	82805	1.03e5	1.11e5	6620	inactive
45	CG5023	DRSC15697	1.92e5	1.65e5	2.08e5	2.08e5	12680	inactive
46	Nckx30C	DRSC02686	1.53e5	1.94e5	97175	1.18e5	20755	inactive
47	Nckx30C	DRSC02687	1.19e5	1.41e5	86150	97470	16785	inactive
48	Nckx30C	DRSC02688	1.72e5	1.98e5	1.05e5	1.01e5	21145	inactive
49	Nckx30C	DRSC02689	68725	87160	34800	44340	12080	inactive
50	EbpII	DRSC04637	2.19e5	1.74e5	1.61e5	1.76e5	15825	inactive
51	EbpII	DRSC22484						inactive
52	ng1	DRSC18802	1.06e5	92465	1.67e5	1.74e5	7130	inactive
53	Smyd4-1	DRSC06785	1.67e5	1.57e5	1.95e5	1.48e5	17180	inactive
54	Ubc6	DRSC12370	82220	70730	62705	60520	4940	inactive
55	Rnb	DRSC16325	1.80e5	1.97e5	2.28e5	2.41e5	14505	inactive
56	CG32188	DRSC09510	1.91e5	1.81e5	2.25e5	2.66e5	20930	inactive
57	CG6962	DRSC16153	58595	68440	38895	44385	5660	inactive
58	Trim9	DRSC02242	1.42e5	1.59e5	74980	98740	16270	inactive
59	ND1 (retired record)	DRSC21273	99695	1.12e5	1.02e5	1.07e5	9685	inactive
60	Ent2	DRSC02124	2.31e5	2.11e5	2.43e5	2.13e5	20130	inactive
61	CG34217	DRSC05083	57535	68970	73665	73735	4020	inactive
62	CG7518	DRSC16253	1.29e5	1.08e5	81640	92365	9705	inactive
63	CG8838	DRSC00712	1.80e5	1.69e5	1.71e5	1.84e5	14145	inactive
64	Rab6	DRSC03404	2.48e5	2.43e5	1.90e5	2.53e5	18310	inactive

7 entries already listed, ordered by “uninduced reporter light, run 1, well a”, ascending.
target gene	amplicon	induced reporter light, run 1, well a	induced reporter light, run 1, well b	control promoter light, run 1, well a	control promoter light, run 1, well b	uninduced reporter light, run 1, well a	Outcome
tho2	DRSC00646	35775	79835	73110	1.00e5	4655	inactive
dah	DRSC20320	1.17e5	1.12e5	1.33e5	1.23e5	7705	inactive
CG15262	DRSC01975	95285	1.20e5	1.34e5	1.43e5	8440	inactive
usp	DRSC18847	1.43e5	1.38e5	2.27e5	2.52e5	10235	inactive
Cpr65Ec	DRSC11025	2.40e5	2.29e5	2.42e5	2.66e5	10715	inactive
NimC2	DRSC01881	1.27e5	1.50e5	1.51e5	2.08e5	12130	inactive
acj6	DRSC20304	2.10e5	1.93e5	2.49e5	2.44e5	14270	inactive
